Results taken from article PMC11784297.
These are yes or no findings as the source states them, for the method shown. In cells and extracts the contact can be indirect. Some results given as binding are weak or reduced against the parent protein; the word gives no strength.

Biological target: STAT2 (construct of Fig. 4A and 4B), P52630
Assay: co-IP
Settings: remark: other sources report otherwise

B1: IRF9 (construct of Fig. 4B), Q00978 1-393 (protein)
chain: MASGRARCTRKLRNWVVEQVESGQFPGVCWDDTAKTMFRIPWKHAGKQDFREDQDAAFFKAWAIFKGKYKEGDTGGPAVWKTRLRCALNKSSEFKEVPERGRMDVAEPYKVYQLLPPGIVSGQPGTQKVPSKRQHSSVSSERKEEEDAMQNCTLSPSVLQDSLNNEEEGASGGAVHSDIGSSSSSSSPEPQEVTDTTEAPFQGDQRSLEFLLPPEPDYSLLLTFIYNGRVVGEAQVQSLDCRLVAEPSGSESSMEQVLFPKPGPLEPTQRLLSQLERGILVASNPRGLFVQRLCPIPISWNAPQAPPGPGPHLLPSNECVELFRTAYFCRDLVRYFQGLGPPPKFQVTLNFWEESHGSSHTPQNLITVKMEQAFARYLLEQTPEQQAAILSLV
binding: binds
